# Results of single-concentration screens

Amino acid sequences for entries named in this document (tags omitted). Residues count along the entry.
UniProt Q4DA54, 1-478: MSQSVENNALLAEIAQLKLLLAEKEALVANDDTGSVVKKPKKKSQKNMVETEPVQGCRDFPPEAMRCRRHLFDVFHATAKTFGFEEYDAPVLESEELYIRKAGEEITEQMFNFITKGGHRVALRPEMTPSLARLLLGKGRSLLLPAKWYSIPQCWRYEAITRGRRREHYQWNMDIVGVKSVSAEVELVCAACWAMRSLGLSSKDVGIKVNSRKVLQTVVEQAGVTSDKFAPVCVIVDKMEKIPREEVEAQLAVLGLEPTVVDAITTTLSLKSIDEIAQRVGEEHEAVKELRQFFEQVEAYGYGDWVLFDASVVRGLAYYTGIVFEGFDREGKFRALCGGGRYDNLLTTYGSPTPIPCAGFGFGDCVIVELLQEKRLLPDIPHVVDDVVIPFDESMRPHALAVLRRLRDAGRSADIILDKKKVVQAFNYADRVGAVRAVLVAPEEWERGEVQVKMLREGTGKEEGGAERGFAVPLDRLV
UniProt P9WPC5, whole entry: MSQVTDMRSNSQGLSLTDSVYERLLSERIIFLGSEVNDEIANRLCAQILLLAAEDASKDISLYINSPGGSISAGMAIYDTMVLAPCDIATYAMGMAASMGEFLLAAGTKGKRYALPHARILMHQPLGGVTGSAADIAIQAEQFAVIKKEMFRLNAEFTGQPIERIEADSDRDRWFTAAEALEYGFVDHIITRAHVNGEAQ
UniProt P9WPC3, whole entry partner: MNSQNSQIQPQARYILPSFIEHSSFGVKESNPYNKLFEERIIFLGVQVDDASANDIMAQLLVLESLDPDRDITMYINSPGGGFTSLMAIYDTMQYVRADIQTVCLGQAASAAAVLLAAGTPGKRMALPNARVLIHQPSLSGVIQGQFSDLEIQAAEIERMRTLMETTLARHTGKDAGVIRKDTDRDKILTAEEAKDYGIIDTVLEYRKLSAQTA

A: 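Enzyme assay of histidyl-tRNA synthetase; the read-out is not stated. Target: Histidine-tRNA ligase, Trypanosoma cruzi CL Brener (UniProt Q4DA54). Tested at 30 µM. The record gives no direction; compounds that gave an IC50 in retests scored well above the rest, so higher reads as stronger inhibition. Size under these conditions: about 69,000 compounds, about 31 of them at 50% or above in at least one test.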
B: 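Protease assay of ClpP1P2, read by the AMC dye that it sets free. Target: ClpP1P2, Mycobacterium tuberculosis (UniProt P9WPC5 and UniProt P9WPC3). Concentration: 50 µM. Direction is inferred from only a few compounds that gave an IC50; most scored high, so higher reads as stronger inhibition. Most other retested compounds had strongly negative values. About 69,000 compounds were tested under these conditions; 0.015% (about 10) showed 50% or more at least once.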

Results are given as percent effect. How 0% and 100% were set is not recorded. Most values in the screen are low, and negative values occur. This is an unselected part of the compounds tested.

Cc1ccc(-n2nc(C)c3c(C)cc(OCC(=O)NC(C)C)nc32)cc1 gave A: 3%; B: -7.765%.
O=C(c1ccncc1)N1C[C@@H]2CC[C@H](C1)N(S(=O)(=O)c1cccnc1)C2 gave A: 3.867%; B: 5.121%.
CC(C)OCCn1nnnc1Cc1ccc(Br)cc1 gave A: -1.911%; B: -3.343%.
Cc1noc(C)c1CN1CCCC1c1nnc2ccccn12 (centres undefined) gave A: 10.45%; B: -5.1%.
Cc1nc(CN2CCCc3cc(OC(F)(F)F)ccc32)oc1C gave A: 2.632%; B: -3.09%.
O=C(NCCn1ccnc1)NCC(c1ccco1)N1CCCCC1 (centres undefined) gave A: 2.642%; B: -4.859%.
CN(C)c1cncc(C2CCCN(c3cnccn3)C2)n1 (centres undefined) gave A: 8.812%; B: -12.78%.
CCc1csc(NC(=O)Nc2c(C)n[nH]c2C)n1 gave A: 0.5525%; B: -7.417%.
COc1c(Cl)cc(Cl)cc1CN1CCC(C(N)=O)C1 (centres undefined) gave A: 1.554%; B: 6.614%.
CCc1ccc(CN(C)C(=O)c2ccc(CSc3nnc[nH]3)o2)nc1 gave A: 1.932%; B: -37.21%.
Cc1ccc2c(c1C)OCC2NCc1cccc(C#N)c1 (centres undefined) gave A: 9.524%; B: -1.184%.
O=C(Cn1nnc(-c2ccc(F)cc2)n1)N1CCOCC(O)C1 (centres undefined) gave A: 7.895%; B: -2.641%.
CCc1ccc(OCCn2cccn2)cc1 gave A: 0%; B: -10.4%.
CC(C)N(C)CC(=O)NCCc1nc(C(F)(F)F)cs1 gave A: 6.667%; B: 0.5861%.
CCCC(NC(=O)c1ccccc1Br)c1nnn[nH]1 (centres undefined) gave A: 6.667%; B: 3.083%.
CCc1cn[nH]c1C1CCCN(C(=O)c2cc(C(C)C)on2)C1 (centres undefined) gave A: -2.186%; B: -6.957%.
CO[C@@H]1CCN(Cc2cnn(C)c2)[C@@H]2CN(Cc3ccco3)C[C@@H]21 gave A: -0.5464%; B: 3.961%.
COC(C)c1cccc(NCc2ccsc2)c1 (centres undefined) gave A: 0%; B: -7.266%.
Cn1cc(CN2CCCC3(CCN(c4cccnc4)C3=O)C2)cn1 (centres undefined) gave A: 4.202%; B: 13.98%.
CC(=O)N1CCC(C(=O)NC(C)c2cccc(OC(F)F)c2)CC1 (centres undefined) gave A: 4.372%; B: 10.18%.
Cn1cc(C2CC(=O)NC23CCN(CC2CC2)CC3)cn1 (centres undefined) gave A: 2.703%; B: -1.02%.
CNC(=O)[C@H]1C[C@@H]2CN(Cc3c(C)noc3C)C[C@@H]2N1C(C)=O gave A: 5.155%; B: -7.697%.
Cc1ccc(C)c(C(C)NC(=O)N2CCC(n3cncn3)CC2)c1 (centres undefined) gave A: -1.754%; B: -5.277%.
COC(=O)c1ccc(Cl)c(NS(=O)(=O)c2cnn(C)c2)c1 gave A: 0%; B: -0.6689%.
Cc1csc(N2CCN(C(=O)c3cc(C4CC4)[nH]n3)CC2)n1 gave A: 12.07%; B: -8.524%.
CC(C)c1nnc2n1CCN(Cc1ncc(-c3ccccc3)o1)C2 gave A: 7.692%; B: -43.36%.
Cc1nc(N2CCOCC2)nc2c1CCN(c1nccs1)CC2 gave A: 3.743%; B: -1.422%.
CCC(CNS(C)(=O)=O)Oc1ccccc1C (centres undefined) gave A: 1.053%; B: -6.19%.

For reference, 2 entries once more:

{"smiles": "Cc1ccc2c(c1C)OCC2NCc1cccc(C#N)c1", "stereo": "centres undefined", "A": 9.524, "B": -1.184}
{"smiles": "CN(C)c1cncc(C2CCCN(c3cnccn3)C2)n1", "stereo": "centres undefined", "A": 8.812, "B": -12.78}

Data taken from ChEMBL document CHEMBL3988442, “University of Dundee, Small-Polar-MMV Screening Library” (2021).